In the supplement of paper PMC10727501:
This is one part of the list. This data set is noisy: repeats of one test often differ as much as different tests do.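 Free-swimming zebrafish larvae were scored for O-bend response probability to dark flashes (naive: first five; training: remaining flashes of four 60-flash blocks; test: later 60-flash block) and for turning toward alternating leftward/rightward LED motion (OMR). Six treated larvae were compared with sixty 0.1% DMSO controls; |SSMD|≥2 defined a hit.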 Peptide text beside a SMILES is read from it. * marks the point of attachment. Cbz = O=C(OCc1ccccc1)*

test system: Danio rerio larvae (5 dpf, TLF); experiment: OMR-Perf (SSMD vs DMSO vehicle); higher = higher than vehicle (e.g. higher dark-flash O-bend response probability, or better optomotor performance); conditions: 10 µM; pre-incubation: 30-90 min

Row | Structure (SMILES) | OMR-Perf
1 | Cl.c1ccc2c(CC3=NCCN3)cccc2c1 [Naphazoline HCl] | 0.261
2 | CC(C)C[C@@H](C=O)NC(=O)[C@H](CC(C)C)NC(=O)[C@H](CC(C)C)NC(=O)OCc1ccccc1 (Cbz-Leu-Leu-Leu-aldehyde) | 0.109
3 | CN[C@H](CC(C)C)C(=O)N[C@H]1C(=O)N[C@@H](CC(N)=O)C(=O)N[C@H]2C(=O)N[C@H]3C(=O)N[C@@H](C(=O)N[C@H](C(=O)O)c4cc(O)cc(O)c4-c4cc3ccc4O)[C@H](O)c3ccc(c(Cl)c3)Oc3cc2cc(c3O[C@H]2O[C@H](CO)[C@@H](O)[C@H](O)[C@H]2O[C@H]2C[C@@](C)(N)[C@H](O)[C@H](C)O2)Oc2ccc(cc2Cl)[C@H]1O.Cl [Vancomycin HCl (Vancocin)] | 0.597
4 | COc1ccccc1N1CCN(CC(O)COc2cccc3ccccc23)CC1.Cl.Cl (stereo not given) [Naftopidil DiHCl] | -0.953
5 | C/C=C1/[C@H]2C=C(C)C[C@]1(N)c1ccc(=O)[nH]c1C2 [(-)-Huperzine A (HupA)] | -0.754
6 | C=CC[C@@H]1/C=C(\C)C[C@H](C)C[C@H](OC)[C@@H]2O[C@@](O)(C(=O)C(=O)N3CCCC[C@H]3C(=O)O[C@H](/C(C)=C/[C@@H]3CC[C@H](O)[C@H](OC)C3)[C@H](C)[C@@H](O)CC1=O)[C@H](C)C[C@@H]2OC [Tacrolimus (FK506)] | 0.44
7 | COc1cc(C(=O)NS(=O)(=O)c2ccccc2C)ccc1Cc1cn(C)c2ccc(NC(=O)OC3CCCC3)cc12 [Zafirlukast] | -0.552
8 | CC1COc2c(N3CCN(C)CC3)c(F)cc3c(=O)c(C(=O)O)cn1c23 (stereo not given) [Ofloxacin (Floxin)] | 0.529
9 | O=C(/C=C/c1ccc(CN(CCO)CCc2c[nH]c3ccccc23)cc1)NO [LAQ824 (Dacinostat)] | -0.199
10 | Cn1cnc([N+](=O)[O-])c1Sc1ncnc2nc[nH]c12 [Azathioprine] | -0.938
11 | C/C(=N\NC(=O)c1cccc(S(=O)(=O)N2CCOCC2)c1)c1cc(Cl)ccc1O | -0.0452
12 | CC1(C)[C@@H](O[C@H]2O[C@H](C(=O)O)[C@@H](O)[C@H](O)[C@@H]2O[C@@H]2O[C@H](C(=O)O)[C@@H](O)[C@H](O)[C@@H]2O)CC[C@@]2(C)[C@H]1CC[C@]1(C)[C@H]2C(=O)C=C2[C@H]3C[C@@](C)(C(=O)O)CC[C@]3(C)CC[C@]21C [Glycyrrhizic Acid] | -0.0719
13 | Cc1ccccc1C(=O)Nc1ccc(C(=O)N2CCCC(O)c3cc(Cl)ccc32)c(C)c1 (stereo not given) [Tolvaptan] | 0.89
14 | CC(O)C1C(=O)N2C(C(=O)O)=C(SC3CNC(C(=O)N(C)C)C3)C(C)C12 (stereo not given) [Meropenem] | -0.159
15 | CC(C)(C)NCC(O)c1ccc(O)c(CO)c1.O=S(=O)(O)O (stereo not given) [Salbutamol sulfate (Albuterol)] | -0.405
16 | O=C1c2c(O)cc(O)cc2O[C@H](c2cc(O)c(O)c(O)c2)[C@H]1O [Dihydromyricetin] | 0.153
17 | O=C(c1cncc(Br)c1)N1CCC(N2CCCC2)CC1 | 0.393
18 | NS(=O)(=O)C#Cc1ccccc1 [Pifithrin-Î¼] | -0.617
19 | CN(C)C(=O)[C@H](O)[C@H](Cc1ccccc1)NC(=O)c1cc2cc(Cl)ccc2[nH]1 | 0.385
20 | Cl.O=C1CC2(CCCC2)CC(=O)N1CCCCN1CCN(c2ncccn2)CC1 [Buspirone HCl] | -0.505

Row | Structure (SMILES) | OMR-Perf
21 | Cc1ccc(C(=O)N(CCCN)[C@@H](c2nc3cc(Cl)ccc3c(=O)n2Cc2ccccc2)C(C)C)cc1 | 0.164
22 | NC(=O)[C@@H](CCC(F)(F)F)N(Cc1ccc(-c2ncon2)cc1F)S(=O)(=O)c1ccc(Cl)cc1 | -1.46
23 | NC(=O)N1c2ccccc2C=Cc2ccccc21 [Carbamazepine] | 0.593
24 | O=C(Nc1ccccc1)c1cc([N+](=O)[O-])ccc1Cl | -0.664
25 | CC1=C(C(=O)Nc2cc3cn[nH]c3cc2F)C(c2ccc(C(F)(F)F)cc2)CC(=O)N1 (stereo not given) | -0.327
26 | CC(C)(C)NS(=O)(=O)c1cncc(-c2cc(F)c3nc(N)nn3c2)c1 | -0.742
27 | OC[C@@H](O)[C@@H](O)[C@H](O)[C@H](O)CO [D-Mannitol] | -0.456
28 | OCC(O)CN1CCN(c2ccccc2)CC1 (stereo not given) [Dropropizine] | -0.493
29 | O=C1Nc2cc(Br)ccc2/C1=C1/Nc2ccccc2/C1=N/O | -0.724
30 | C#Cc1cccc(Nc2ncnc3cc(OCCOC)c(OCCO)cc23)c1.Cl | -0.488
31 | CN1CCC(OC(c2ccccc2)c2ccccc2)CC1.Cl [Diphenylpyraline HCl] | 0.67
32 | Cc1onc(-c2ccccc2)c1C(=O)N[C@@H]1C(=O)N2[C@@H]1SC(C)(C)[C@H]2C(=O)[O-].O.[Na+] [Oxacillin sodium monohydrate] | 0.169
33 | c1cn2cc(-c3ccc4cn[nH]c4c3)nc(Nc3ccc(N4CCOCC4)cc3)c2n1 | 0.933
34 | COc1cc(C)c(/C=C/C(C)=C/C=C/C(C)=C/C(=O)O)c(C)c1C [Acitretin] | -0.232
35 | C[C@]12C=CC(=O)C=C1CC[C@H]1[C@@H]3C[C@@H](O)[C@@](O)(C(=O)CO)[C@@]3(C)C[C@@H](O)[C@]12F [Triamcinolone] | 0.067
36 | CN(C)CCCN1c2ccccc2Sc2ccc(Cl)cc21.Cl [Chlorpromazine HCl] | -0.467
37 | Nc1nc(N)c(N=O)c(OCC2CCCCC2)n1 | -0.242
38 | O=C([O-])c1cc(/N=N/c2ccc(O)c(C(=O)[O-])c2)ccc1O.[Na+].[Na+] [Olsalazine Sodium] | 0.0403
39 | C#C[C@@]1(O)CC[C@H]2[C@@H]3CCC4=CC(=O)CC[C@@H]4[C@@H]3CC[C@@]21CC [Levonorgestrel] | -1.05
40 | CCCCC1=NC2(CCCC2)C(=O)N1Cc1ccc(-c2ccccc2-c2nn[nH]n2)cc1 [Irbesartan] | -0.312

Not a retest: entries from further up.
Row | Structure (SMILES) | OMR-Perf
10 | Cn1cnc([N+](=O)[O-])c1Sc1ncnc2nc[nH]c12 [Azathioprine] | -0.938
11 | C/C(=N\NC(=O)c1cccc(S(=O)(=O)N2CCOCC2)c1)c1cc(Cl)ccc1O | -0.0452
